Data: PubChem BioAssay AID504467 (National Center for Advancing Translational Sciences (NCATS), 2011)
The whole screen tested about 330,000 compounds, of which about 7,700 (2.3%) were called active. Inconclusive means that the source gave no clear call. Such entries were picked first, then a sample of the others. The call rests on the fitted dose curve; in most records, active means well fitted inhibition curve with a large enough effect; inconclusive means small, poorly fitted or top-dose-only effect, or effect the other way; inactive means flat fitted curve, though single readings scatter. A potency beside an inconclusive call is a rough fit, not a confirmed value.

Assay: qHTS screen for small molecules that inhibit ELG1-dependent DNA repair in human embryonic kidney (HEK293T) cells expressing luciferase-tagged ELG1; further: nearly all actives have a fitted effect of over 55% in size
Conditions: HEK293T ELG1-luciferase reporter, luminescence, 16 h, DNA damage induced by 5-fluorouridine; activity change, negative = inhibition: at 46.1 µM (top of the series)
Procedure, shortened: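 Step one: seed 2,000 cells per well. Step two: pin-transfer compound or DMSO alongside 5-fluorouridine. Step three: incubate 16 hr, 37 °C, 5% CO2. Step four: add ONE-Glo, wait 30 min, read luminescence.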
On the % scale 0 is the no-effect control and ±100 the full control effect; potency means the concentration at half of the fitted maximal effect.

Compound | Potency | activity change, negative = inhibition
COc1cc(CCCN2CCNC[C@H]2Cc2cccc3ccccc23)cc(OC)c1OC | inconclusive: 23.1 µM [activator, partial curve, poor fit] | 
O=S(=O)(NCC(Nc1ccc(Cl)cc1)c1ccccc1)c1ccc(Cl)cc1 (configuration not stated) |  | inactive: -2.44%
Cc1nn(C)c(C)c1CCC(=O)N1CCCC(N2CCN(c3ccc(F)cc3)CC2)C1 (configuration not stated) |  | inactive: 10.8%
COc1ccccc1CNC(=O)[C@@H](NC(=O)C1CCN(C(=O)[C@@H]2CCCN2C(=O)OC(C)(C)C)CC1)C(C)C | inconclusive: 0.058 µM [activator, partial curve, poor fit] | 
O=C(COc1coc(CN2CCc3ccccc3C2)cc1=O)N1CCOCC1 |  | inactive: 15%
O=C(NC1CCCC1)C1=COCCO1 | inconclusive: 20.6 µM [activator, partial curve, poor fit] | 
OCCNc1ccc(Cl)cc1 | inconclusive: 18.4 µM [activator, partial curve] | 
O=C(OCc1c(Cl)cccc1Cl)c1ccccn1 |  | inactive: 11.2%
COCCN(C(=O)COC(=O)/C(=C/c1ccccc1)NC(C)=O)c1c(N)n(Cc2ccccc2)c(=O)[nH]c1=O | inconclusive: 18.3 µM [activator, partial curve, poor fit] | 
O=C(O)c1ccccc1C(=O)N1CCN(c2ncccn2)CC1 |  | inactive: 10.5%
COc1ccc(/C=C/c2ccncc2)cc1OC | inconclusive: 20.6 µM [activator, partial curve] | 
CC(OC(=O)Cn1ccccc1=O)C(=O)Nc1cc(Cl)cc(Cl)c1 (configuration not stated) |  | inactive: 12.6%
O=C(CN1CCC(NC(=O)c2ccco2)CC1)Nc1ccccc1[N+](=O)[O-] |  | inactive: -19.3%
Clc1ccc(CSc2snnc2-c2ccccc2)c(Cl)c1 | inconclusive: 16.4 µM [activator, partial curve] | 
COCCNC(=O)CSc1nc(-c2ccccc2)cs1 | inconclusive: 25.9 µM [activator, single point] | 
Cc1ccc(CSc2nn3c(=O)c(C)nnc3s2)cc1 | inconclusive: 20.6 µM [activator, single point] | 
O=C(NCCc1ccccc1)c1cc(-c2ccco2)on1 | inconclusive: 5.8 µM [activator, partial curve] | 
CN(C)S(=O)(=O)c1cccc(NC(=O)CSc2nc3c(cc2C#N)C(=O)CC(C)(C)C3)c1 | inconclusive: 29.1 µM [inhibitor, single point] | 
O=C(O)c1cc(N/N=C/c2c(O)ccc3ccccc23)ccc1Cl | inconclusive: 2.59 µM [activator, full curve] | 
CCCOc1ccc(C(=O)Nc2ccc(N3CCN(C(C)=O)CC3)cc2)cc1 | inconclusive: 18.4 µM [inhibitor, single point] | 
Cc1nnc(SCC(=O)Nc2ccc(O)cc2)c2ccccc12 |  | inactive: 16.5%
CCOc1ccc(NC(=O)CC2C(=O)N(c3ccc(OC)cc3)C(=O)N2Cc2ccc(OC)cc2)cc1 (configuration not stated) |  | inactive: -1.44%
CCN(CC)c1nc2ccccc2nc1C(C#N)C(=O)NCCc1ccccc1 (configuration not stated) | inconclusive: 20.6 µM [inhibitor, single point] | 
CC1CCCCN1S(=O)(=O)c1ccc(C(=O)Nc2sccc2C(N)=O)cc1 (configuration not stated) |  | inactive: -21.4%

Shown with tabs: part of the list above
Compound	Potency	activity change, negative = inhibition
COCCNC(=O)CSc1nc(-c2ccccc2)cs1	inconclusive: 25.9 µM [activator, single point]	
Cc1nnc(SCC(=O)Nc2ccc(O)cc2)c2ccccc12		inactive: 16.5%
CCOc1ccc(NC(=O)CC2C(=O)N(c3ccc(OC)cc3)C(=O)N2Cc2ccc(OC)cc2)cc1 (configuration not stated)		inactive: -1.44%

More entries follow:

Compound | Potency | activity change, negative = inhibition
Cc1csc(NC(=O)c2cccnc2)n1 | inconclusive: 10.3 µM [activator, partial curve] | 
O=C(NC(=S)Nc1ccc(N2CCOCC2)cc1)c1ccc2c(c1)OCCO2 | inconclusive: 29.1 µM [inhibitor, single point] | 
Cc1nn(CCC(N)=S)c2nc(-c3cccs3)cc(C(F)(F)F)c12 | inconclusive: 29.1 µM [inhibitor, single point] | 
OCCCCCNc1ncnc2ccccc12 | inconclusive: 5.8 µM [inhibitor, full curve] | 
C=CCSc1nnc(C)c(/C=C/Nc2ccc(Cl)cc2)n1 |  | inactive: -8.08%
Cn1c(SC2=CS(=O)(=O)c3ccccc32)nc2ccccc21 | inconclusive: 20.6 µM [inhibitor, single point] | 
Cc1ccc(S(=O)(=O)NCc2ccccc2)cc1C(=O)N1CC(C)CC(C)C1 (configuration not stated) |  | inactive: -18.2%
O=C1C=C(c2ccc3cc[nH]c3c2)C[C@@H](c2ccc3c(c2)OCO3)C1 | inconclusive: 29.1 µM [inhibitor, single point] | 
Clc1ccc(CNc2nc(CN3CCOCC3)nc3scc(-c4ccccc4)c23)cc1 | inconclusive: 29.1 µM [inhibitor, single point] | 
Cc1ccc(NC(=O)C2CCN(c3cnccn3)CC2)cc1C |  | inactive: 6.11%
C=CCOC(=O)C1=C(C)NC(SCC(N)=O)=C(C#N)C1c1ccc(C)cc1 (configuration not stated) |  | inactive: 17.9%
CN(CC1COc2ccccc2O1)C(=O)CSc1nncs1 (configuration not stated) | inconclusive: 18.3 µM [activator, single point] | 
Cc1cc2ccccc2c(=O)n1CC(=O)NCC(=O)N1CCN(c2ccccc2)CC1 | inconclusive: 16.4 µM [inhibitor, single point] | 
CC(C)(C)c1nc2ccccc2c2nnc(SCC(=O)NCc3ccco3)n12 | inconclusive: 11.2 µM [inhibitor, partial curve] | 
C=C(C)C(=O)Nc1nnc(-c2cccs2)s1 |  | inactive: 13.5%
CCc1ccccc1NC(=O)CN1CCN(C(=O)c2cccc(-n3cnnn3)c2)CC1 |  | inactive: -0.185%
CCOc1ccccc1C(=O)N/N=C/c1coc2ccc(Cl)cc2c1=O |  | inactive: 7.93%
O=C(CCCCCNC(=O)c1ccccc1)N/N=C/c1ccccc1 | inconclusive: 25.9 µM [activator, single point] | 
Cc1nnc(SCC(=O)NCCC2=CCCCC2)[nH]c1=O | inconclusive: 16.4 µM [activator, single point] | 
COc1ccc(NC(=O)c2cc(NC(=O)C3CCCCC3C(=O)O)ccc2N2CCOCC2)cc1 (configuration not stated) |  | inactive: 16.6%
O=C(/C=C/c1c(F)cccc1Cl)Nc1nc2ccccc2[nH]1 | inconclusive: 2.31 µM [activator, full curve] | 
CC1(C(=O)NC(=S)N(CCC#N)c2ccccc2)CC1(Cl)Cl (configuration not stated) | inconclusive: 29.1 µM [activator, single point] | 
O=C(NCC1CCCO1)c1ccccc1-c1nc(-c2ccc(Cl)cc2)no1 (configuration not stated) | inconclusive: 18.4 µM [inhibitor, single point] | 
